Source: PMC8730729

Amino acid sequences for entries named in this document (tags omitted).
UniProt Q86V87: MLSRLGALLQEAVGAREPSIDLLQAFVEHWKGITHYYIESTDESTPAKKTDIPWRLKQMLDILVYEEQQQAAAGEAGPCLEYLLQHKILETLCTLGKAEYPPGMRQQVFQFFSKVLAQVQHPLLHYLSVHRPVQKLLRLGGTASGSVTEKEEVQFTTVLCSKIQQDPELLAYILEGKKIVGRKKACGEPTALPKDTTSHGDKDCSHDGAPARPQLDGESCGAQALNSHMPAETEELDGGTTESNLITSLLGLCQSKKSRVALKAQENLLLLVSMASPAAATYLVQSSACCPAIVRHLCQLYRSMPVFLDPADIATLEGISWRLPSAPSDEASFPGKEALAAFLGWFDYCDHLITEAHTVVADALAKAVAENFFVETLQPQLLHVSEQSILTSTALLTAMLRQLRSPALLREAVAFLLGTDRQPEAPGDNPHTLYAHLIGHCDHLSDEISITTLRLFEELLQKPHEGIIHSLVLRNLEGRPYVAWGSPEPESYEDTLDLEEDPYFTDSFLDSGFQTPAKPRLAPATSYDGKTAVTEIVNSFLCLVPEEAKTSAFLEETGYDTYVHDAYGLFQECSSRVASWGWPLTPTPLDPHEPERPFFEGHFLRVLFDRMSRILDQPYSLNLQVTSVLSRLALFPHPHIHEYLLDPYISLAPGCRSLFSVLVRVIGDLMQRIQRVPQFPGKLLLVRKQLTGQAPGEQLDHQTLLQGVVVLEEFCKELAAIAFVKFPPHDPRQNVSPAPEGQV

T1: FHIP1B tagged at the carboxy terminus with BioID2 and 3xFLAG (human) (UniProt Q8N612)
T1 sequence: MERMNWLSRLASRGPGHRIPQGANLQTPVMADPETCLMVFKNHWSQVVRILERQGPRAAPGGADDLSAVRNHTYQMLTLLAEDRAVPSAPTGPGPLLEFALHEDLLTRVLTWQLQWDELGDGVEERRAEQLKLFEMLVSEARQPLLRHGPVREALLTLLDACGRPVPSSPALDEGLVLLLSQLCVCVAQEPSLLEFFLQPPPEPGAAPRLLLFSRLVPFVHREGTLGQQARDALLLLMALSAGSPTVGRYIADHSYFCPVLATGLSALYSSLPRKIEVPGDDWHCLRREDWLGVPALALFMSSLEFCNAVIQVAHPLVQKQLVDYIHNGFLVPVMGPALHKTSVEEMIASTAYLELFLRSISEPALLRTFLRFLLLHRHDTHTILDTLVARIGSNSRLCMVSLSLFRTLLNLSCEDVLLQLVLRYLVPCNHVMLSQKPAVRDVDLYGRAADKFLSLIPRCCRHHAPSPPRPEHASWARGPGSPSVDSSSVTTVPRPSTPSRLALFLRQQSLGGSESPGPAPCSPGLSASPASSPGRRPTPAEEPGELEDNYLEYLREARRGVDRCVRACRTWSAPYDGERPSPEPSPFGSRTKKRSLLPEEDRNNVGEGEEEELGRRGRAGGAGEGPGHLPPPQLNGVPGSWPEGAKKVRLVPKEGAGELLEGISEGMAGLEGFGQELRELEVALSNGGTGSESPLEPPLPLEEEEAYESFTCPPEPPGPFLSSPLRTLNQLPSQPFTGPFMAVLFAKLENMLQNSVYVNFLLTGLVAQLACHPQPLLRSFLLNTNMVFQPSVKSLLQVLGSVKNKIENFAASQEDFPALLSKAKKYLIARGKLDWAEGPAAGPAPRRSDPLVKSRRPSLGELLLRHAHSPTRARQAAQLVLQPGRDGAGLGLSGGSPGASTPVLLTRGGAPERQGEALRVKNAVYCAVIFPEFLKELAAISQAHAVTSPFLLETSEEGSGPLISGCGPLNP

B1: FTS/AKTIP, endogenous in 293T cells (protein, UniProt Q9H8T0 1-292)
chain: MNPFWSMSTSSVRKRSEGEEKTLTGDVKTSPPRTAPKKQLPSIPKNALPITKPTSPAPAAQSTNGTHASYGPFYLEYSLLAEFTLVVKQKLPGVYVQPSYRSALMWFGVIFIRHGLYQDGVFKFTVYIPDNYPDGDCPRLVFDIPVFHPLVDPTSGELDVKRAFAKWRRNHNHIWQVLMYARRVFYKIDTASPLNPEAAVLYEKDIQLFKSKVVDSVKVCTARLFDQPKIEDPYAISFSPWNPSVHDEAREKMLTQKKPEEQHNKSVHVAGLSWVKPGSVQPFSKEEKTVAT
B2: carboxypeptidase D, endogenous in 293T cells (protein, UniProt O75976 32-1380)
chain: AHIKKAEATTTTTSAGAEAAEGQFDRYYHEEELESALREAAAAGLPGLARLFSIGRSVEGRPLWVLRLTAGLGSLIPEGDAGPDAAGPDAAGPLLPGRPQVKLVGNMHGDETVSRQVLIYLARELAAGYRRGDPRLVRLLNTTDVYLLPSLNPDGFERAREGDCGFGDGGPSGASGRDNSRGRDLNRSFPDQFSTGEPPALDEVPEVRALIEWIRRNKFVLSGNLHGGSVVASYPFDDSPEHKATGIYSKTSDDEVFKYLAKAYASNHPIMKTGEPHCPGDEDETFKDGITNGAHWYDVEGGMQDYNYVWANCFEITLELSCCKYPPASQLRQEWENNRESLITLIEKVHIGVKGFVKDSITGSGLENATISVAGINHNITTGRFGDFYRLLVPGTYNLTVVLTGYMPLTVTNVVVKEGPATEVDFSLRPTVTSVIPDTTEAVSTASTVAIPNILSGTSSSYQPIQPKDFHHHHFPDMEIFLRRFANEYPNITRLYSLGKSVESRELYVMEISDNPGVHEPGEPEFKYIGNMHGNEVVGRELLLNLIEYLCKNFGTDPEVTDLVHNTRIHLMPSMNPDGYEKSQEGDSISVIGRNNSNNFDLNRNFPDQFVQITDPTQPETIAVMSWMKSYPFVLSANLHGGSLVVNYPFDDDEQGLATYSKSPDDAVFQQIALSYSKENSQMFQGRPCKNMYPNEYFPHGITNGASWYNVPGGMQDWNYLQTNCFEVTIELGCVKYPLEKELPNFWEQNRRSLIQFMKQVHQGVRGFVLDATDGRGILNATISVAEINHPVTTYKTGDYWRLLVPGTYKITASARGYNPVTKNVTVKSEGAIQVNFTLVRSSTDSNNESKKGKGASSSTNDASDPTTKEFETLIKDLSAENGLESLMLRSSSNLALALYRYHSYKDLSEFLRGLVMNYPHITNLTNLGQSTEYRHIWSLEISNKPNVSEPEEPKIRFVAGIHGNAPVGTELLLALAEFLCLNYKKNPAVTQLVDRTRIVIVPSLNPDGRERAQEKDCTSKIGQTNARGKDLDTDFTNNASQPETKAIIENLIQKQDFSLSVALDGGSMLVTYPYDKPVQTVENKETLKHLASLYANNHPSMHMGQPSCPNKSDENIPGGVMRGAEWHSHLGSMKDYSVTYGHCPEITVYTSCCYFPSAARLPSLWADNKRSLLSMLVEVHKGVHGFVKDKTGKPISKAVIVLNEGIKVQTKEGGYFHVLLAPGVHNIIAIADGYQQQHSQVFVHHDAASSVVIVFDTDNRIFGLPRELVVTVSGATMSALILTACIIWCICSIKSNRHKDGFHRLRQHHDEYEDEIRMMSTGSKKSLLSHEFQDETDTEEETLYSSKH
B3: Hook3, endogenous in 293T cells (protein, UniProt Q86VS8 1-718)
chain: MFSVESLERAELCESLLTWIQTFNVDAPCQTVEDLTNGVVMAQVLQKIDPAYFDENWLNRIKTEVGDNWRLKISNLKKILKGILDYNHEILGQQINDFTLPDVNLIGEHSDAAELGRMLQLILGCAVNCEQKQEYIQAIMMMEESVQHVVMTAIQELMSKESPVSAGNDAYVDLDRQLKKTTEELNEALSAKEEIAQRCHELDMQVAALQEEKSSLLAENQVLMERLNQSDSIEDPNSPAGRRHLQLQTQLEQLQEETFRLEAAKDDYRIRCEELEKEISELRQQNDELTTLADEAQSLKDEIDVLRHSSDKVSKLEGQVESYKKKLEDLGDLRRQVKLLEEKNTMYMQNTVSLEEELRKANAARSQLETYKRQVVELQNRLSEESKKADKLDFEYKRLKEKVDSLQKEKDRLRTERDSLKETIEELRCVQAQEGQLTTQGLMPLGSQESSDSLAAEIVTPEIREKLIRLQHENKMLKLNQEGSDNEKIALLQSLLDDANLRKNELETENRLVNQRLLEVQSQVEELQKSLQDQGSKAEDSVLLKKKLEEHLEKLHEANNELQKKRAIIEDLEPRFNNSSLKIEELQEALRKKEEEMKQMEERYKKYLEKAKSVIRTLDPKQNQGAAPEIQALKNQLQERDRLFHSLEKEYEKTKSQREMEEKYIVSAWYNMGMTLHKKAAEDRLASTGSGQSFLARQRQATSSRRSYPGHVQPATAR
B4: KIAA0319L, endogenous in 293T cells (protein, UniProt Q8IZA0 1-1049)
chain: MEKRLGVKPNPASWILSGYYWQTSAKWLRSLYLFYTCFCFSVLWLSTDASESRCQQGKTQFGVGLRSGGENHLWLLEGTPSLQSCWAACCQDSACHVFWWLEGMCIQADCSRPQSCRAFRTHSSNSMLVFLKKFQTADDLGFLPEDDVPHLLGLGWNWASWRQSPPRAALRPAVSSSDQQSLIRKLQKRGSPSDVVTPIVTQHSKVNDSNELGGLTTSGSAEVHKAITISSPLTTDLTAELSGGPKNVSVQPEISEGLATTPSTQQVKSSEKTQIAVPQPVAPSYSYATPTPQASFQSTSAPYPVIKELVVSAGESVQITLPKNEVQLNAYVLQEPPKGETYTYDWQLITHPRDYSGEMEGKHSQILKLSKLTPGLYEFKVIVEGQNAHGEGYVNVTVKPEPRKNRPPIAIVSPQFQEISLPTTSTVIDGSQSTDDDKIVQYHWEELKGPLREEKISEDTAILKLSKLVPGNYTFSLTVVDSDGATNSTTANLTVNKAVDYPPVANAGPNQVITLPQNSITLFGNQSTDDHGITSYEWSLSPSSKGKVVEMQGVRTPTLQLSAMQEGDYTYQLTVTDTIGQQATAQVTVIVQPENNKPPQADAGPDKELTLPVDSTTLDGSKSSDDQKIISYLWEKTQGPDGVQLENANSSVATVTGLQVGTYVFTLTVKDERNLQSQSSVNVIVKEEINKPPIAKITGNVVITLPTSTAELDGSKSSDDKGIVSYLWTRDEGSPAAGEVLNHSDHHPILFLSNLVEGTYTFHLKVTDAKGESDTDRTTVEVKPDPRKNNLVEIILDINVSQLTERLKGMFIRQIGVLLGVLDSDIIVQKIQPYTEQSTKMVFFVQNEPPHQIFKGHEVAAMLKSELRKQKADFLIFRALEVNTVTCQLNCSDHGHCDSFTKRCICDPFWMENFIKVQLRDGDSNCEWSVLYVIIATFVIVVALGILSWTVICCCKRQKGKPKRKSKYKILDATDQESLELKPTSRAGIKQKGLLLSSSLMHSESELDSDDAIFTWPDREKGKLLHGQNGSVPNGQTPLKARSPREEIL
B5: Rab5B, endogenous in 293T cells (protein, UniProt P61020 1-215)
chain: MTSRSTARPNGQPQASKICQFKLVLLGESAVGKSSLVLRFVKGQFHEYQESTIGAAFLTQSVCLDDTTVKFEIWDTAGQERYHSLAPMYYRGAQAAIVVYDITNQETFARAKTWVKELQRQASPSIVIALAGNKADLANKRMVEYEEAQAYADDNSLLFMETSAKTAMNVNDLFLAIAKKLPKSEPQNLGGAAGRSRGVDLHEQSQQNKSQCCSN
B6: SNX30, endogenous in 293T cells (protein, UniProt Q5VWJ9 1-437)
chain: MAGGPPKALPSTGPHSLRDMPHPLAGSSSEEAVGGDSTPSPDLLMARSFGDKDLILPNGGTPAGTSSPASSSSLLNRLQLDDDIDGETRDLFVIVDDPKKHVCTMETYITYRITTKSTRVEFDLPEYSVRRRYQDFDWLRSKLEESQPTHLIPPLPEKFVVKGVVDRFSEEFVETRRKALDKFLKRITDHPVLSFNEHFNIFLTAKDLNAYKKQGIALLTRMGESVKHVTGGYKLRTRPLEFAAIGDYLDTFALKLGTIDRIAQRIIKEEIEYLVELREYGPVYSTWSALEGELAEPLEGVSACIGNCSTALEELTDDMTEDFLPVLREYILYSDSMKSVLKKRDQVQAEYEAKLEAVALRKEDRPKVPADVEKCQDRMECFNADLKADMERWQNNKRQDFRQLLMGMADKNIQYYEKCLMAWESIIPLLQEKQEAK

Biological target: FHIP2B tagged at the carboxy terminus with BioID2 and 3xFLAG (human) (UniProt Q86V87)
Assay: proximity labelling; BioID2 fused to the carboxy terminus of the bait in stable doxycycline-inducible 293T lines; 50 µM biotin 16 hr; RIPA lysis, streptavidin beads, on-bead digestion, MS; hits ≥threefold over cytoplasmic BioID2 control or absent from it, p < 0.05, three of four replicates

binding	Binder
binds	B1
binds	B2
binds	B3
binds	B4

Biological target: T1, FHIP1B tagged at the carboxy terminus with BioID2 and 3xFLAG (human)
Assay: as above

binding	Binder
binds	B1
binds	B5

Biological target: FHIP1A tagged at the carboxy terminus with BioID2 and 3xFLAG (human) (UniProt Q05DH4)
Assay: as above

binding	Binder
binds	B6
binds	B1
binds	B3

Biological target: FHIP2A tagged at the carboxy terminus with BioID2 and 3xFLAG (human) (UniProt Q5W0V3)
Assay: as above

binding	Binder
binds	B1
binds	B2
binds	B3
binds	B4

Results are given in words; binding and its absence hold for the method and conditions named. Binding seen in cells or lysates may run through a third protein. These calls come from enrichment with a bait or labelling near it, and not all partners need be listed. For some of these results: Tags and fused reporters may be left off the sequences shown.
